Source: PMC11187919
Construct, isoform or probe ends are uncertain for at least one entry. At least one verdict rests on a figure or table, not on a statement of the authors.

Target: alpha-synuclein (α-Syn) (UniProt P37840)
Test: fluorescence turn-on sensor (FRET, Eu-MOF@Au-Aptamer)
Details: aptamer on AuNP in Eu-MOF, range 0.0005-1 ng/mL, LOD 0.04 pg/mL (not a Kd); 5'-SH; on gold nanoparticles, loaded in Eu-MOF; sensor in aqueous solution, emission read at 545 nm; single-stranded DNA

TTTTTGGTGGCTGGAGGGGGGGCGCGAACG [α-Syn aptamer]
binding result: binds
